According to the supplement of paper PMC10849652:
Some of the results follow.

By UniProt entry, the sequences of proteins in these tests, tags left out. Where a name states a change or a piece, a line headed by the entry shows the natural chain unless it says otherwise.
UniProt P25705: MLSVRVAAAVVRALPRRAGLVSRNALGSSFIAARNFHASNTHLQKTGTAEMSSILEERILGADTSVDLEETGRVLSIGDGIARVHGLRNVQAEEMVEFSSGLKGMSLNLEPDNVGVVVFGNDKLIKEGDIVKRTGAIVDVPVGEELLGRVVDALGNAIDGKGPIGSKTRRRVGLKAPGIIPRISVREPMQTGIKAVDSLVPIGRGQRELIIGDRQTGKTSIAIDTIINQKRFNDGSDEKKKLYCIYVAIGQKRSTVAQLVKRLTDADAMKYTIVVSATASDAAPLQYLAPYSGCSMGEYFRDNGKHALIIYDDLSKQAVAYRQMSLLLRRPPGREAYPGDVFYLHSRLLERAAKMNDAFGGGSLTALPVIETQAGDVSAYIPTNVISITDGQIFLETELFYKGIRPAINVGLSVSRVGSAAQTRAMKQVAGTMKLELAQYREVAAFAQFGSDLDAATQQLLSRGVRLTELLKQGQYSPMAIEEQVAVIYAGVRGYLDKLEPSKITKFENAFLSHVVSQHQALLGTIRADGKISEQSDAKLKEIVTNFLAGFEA
UniProt Q9H1I8: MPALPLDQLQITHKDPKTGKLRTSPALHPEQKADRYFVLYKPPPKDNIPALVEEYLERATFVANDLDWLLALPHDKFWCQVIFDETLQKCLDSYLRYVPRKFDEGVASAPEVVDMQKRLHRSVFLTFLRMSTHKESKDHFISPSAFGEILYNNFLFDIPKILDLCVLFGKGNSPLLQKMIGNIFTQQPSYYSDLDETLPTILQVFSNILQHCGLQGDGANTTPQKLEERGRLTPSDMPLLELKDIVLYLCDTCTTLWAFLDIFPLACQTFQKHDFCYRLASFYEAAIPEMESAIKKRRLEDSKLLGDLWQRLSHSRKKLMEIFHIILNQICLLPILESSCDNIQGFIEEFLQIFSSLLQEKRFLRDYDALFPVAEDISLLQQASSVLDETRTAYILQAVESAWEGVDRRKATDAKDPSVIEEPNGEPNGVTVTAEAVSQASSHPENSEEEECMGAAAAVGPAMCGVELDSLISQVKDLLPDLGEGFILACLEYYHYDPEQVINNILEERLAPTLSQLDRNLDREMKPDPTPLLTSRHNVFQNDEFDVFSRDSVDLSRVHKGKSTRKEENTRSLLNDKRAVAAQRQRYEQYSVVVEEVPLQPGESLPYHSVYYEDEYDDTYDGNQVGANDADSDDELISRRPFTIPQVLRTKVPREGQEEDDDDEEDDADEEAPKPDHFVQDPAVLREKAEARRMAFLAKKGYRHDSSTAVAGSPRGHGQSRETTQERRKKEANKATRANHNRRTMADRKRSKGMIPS
UniProt Q96GX2: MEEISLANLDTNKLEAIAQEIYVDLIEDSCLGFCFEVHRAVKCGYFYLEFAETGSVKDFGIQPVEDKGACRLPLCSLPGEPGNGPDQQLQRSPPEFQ
UniProt Q6ZNE5, whole entry, looked up: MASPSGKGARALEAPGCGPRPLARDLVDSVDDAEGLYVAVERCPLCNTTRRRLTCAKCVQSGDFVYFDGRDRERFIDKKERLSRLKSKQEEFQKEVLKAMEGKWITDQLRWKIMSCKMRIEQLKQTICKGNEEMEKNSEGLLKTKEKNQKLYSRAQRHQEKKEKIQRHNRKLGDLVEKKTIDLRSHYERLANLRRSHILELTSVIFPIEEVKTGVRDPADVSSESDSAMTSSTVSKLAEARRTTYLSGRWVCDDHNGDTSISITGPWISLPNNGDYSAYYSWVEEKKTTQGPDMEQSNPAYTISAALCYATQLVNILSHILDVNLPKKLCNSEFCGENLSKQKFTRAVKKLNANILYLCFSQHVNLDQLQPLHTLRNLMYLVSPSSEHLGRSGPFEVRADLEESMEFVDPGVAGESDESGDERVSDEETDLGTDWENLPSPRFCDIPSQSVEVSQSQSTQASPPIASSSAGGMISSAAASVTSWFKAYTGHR
UniProt Q5U623: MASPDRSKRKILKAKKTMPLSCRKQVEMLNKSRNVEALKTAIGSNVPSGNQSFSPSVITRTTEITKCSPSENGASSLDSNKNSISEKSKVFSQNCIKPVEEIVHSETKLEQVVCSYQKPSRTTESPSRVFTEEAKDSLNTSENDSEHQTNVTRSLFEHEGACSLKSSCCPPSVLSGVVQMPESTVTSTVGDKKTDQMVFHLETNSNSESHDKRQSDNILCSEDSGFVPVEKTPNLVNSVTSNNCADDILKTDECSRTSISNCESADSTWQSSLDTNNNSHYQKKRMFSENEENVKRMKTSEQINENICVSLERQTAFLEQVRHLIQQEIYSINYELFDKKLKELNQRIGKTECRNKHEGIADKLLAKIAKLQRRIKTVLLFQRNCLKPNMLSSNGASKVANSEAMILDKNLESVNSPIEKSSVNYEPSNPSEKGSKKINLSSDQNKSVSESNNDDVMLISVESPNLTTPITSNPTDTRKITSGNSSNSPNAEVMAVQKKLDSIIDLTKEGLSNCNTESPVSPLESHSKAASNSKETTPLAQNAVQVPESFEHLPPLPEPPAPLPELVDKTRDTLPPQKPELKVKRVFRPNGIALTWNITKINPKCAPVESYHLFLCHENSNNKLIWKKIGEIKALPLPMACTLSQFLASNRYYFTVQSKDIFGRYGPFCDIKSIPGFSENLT
UniProt Q8IZT6: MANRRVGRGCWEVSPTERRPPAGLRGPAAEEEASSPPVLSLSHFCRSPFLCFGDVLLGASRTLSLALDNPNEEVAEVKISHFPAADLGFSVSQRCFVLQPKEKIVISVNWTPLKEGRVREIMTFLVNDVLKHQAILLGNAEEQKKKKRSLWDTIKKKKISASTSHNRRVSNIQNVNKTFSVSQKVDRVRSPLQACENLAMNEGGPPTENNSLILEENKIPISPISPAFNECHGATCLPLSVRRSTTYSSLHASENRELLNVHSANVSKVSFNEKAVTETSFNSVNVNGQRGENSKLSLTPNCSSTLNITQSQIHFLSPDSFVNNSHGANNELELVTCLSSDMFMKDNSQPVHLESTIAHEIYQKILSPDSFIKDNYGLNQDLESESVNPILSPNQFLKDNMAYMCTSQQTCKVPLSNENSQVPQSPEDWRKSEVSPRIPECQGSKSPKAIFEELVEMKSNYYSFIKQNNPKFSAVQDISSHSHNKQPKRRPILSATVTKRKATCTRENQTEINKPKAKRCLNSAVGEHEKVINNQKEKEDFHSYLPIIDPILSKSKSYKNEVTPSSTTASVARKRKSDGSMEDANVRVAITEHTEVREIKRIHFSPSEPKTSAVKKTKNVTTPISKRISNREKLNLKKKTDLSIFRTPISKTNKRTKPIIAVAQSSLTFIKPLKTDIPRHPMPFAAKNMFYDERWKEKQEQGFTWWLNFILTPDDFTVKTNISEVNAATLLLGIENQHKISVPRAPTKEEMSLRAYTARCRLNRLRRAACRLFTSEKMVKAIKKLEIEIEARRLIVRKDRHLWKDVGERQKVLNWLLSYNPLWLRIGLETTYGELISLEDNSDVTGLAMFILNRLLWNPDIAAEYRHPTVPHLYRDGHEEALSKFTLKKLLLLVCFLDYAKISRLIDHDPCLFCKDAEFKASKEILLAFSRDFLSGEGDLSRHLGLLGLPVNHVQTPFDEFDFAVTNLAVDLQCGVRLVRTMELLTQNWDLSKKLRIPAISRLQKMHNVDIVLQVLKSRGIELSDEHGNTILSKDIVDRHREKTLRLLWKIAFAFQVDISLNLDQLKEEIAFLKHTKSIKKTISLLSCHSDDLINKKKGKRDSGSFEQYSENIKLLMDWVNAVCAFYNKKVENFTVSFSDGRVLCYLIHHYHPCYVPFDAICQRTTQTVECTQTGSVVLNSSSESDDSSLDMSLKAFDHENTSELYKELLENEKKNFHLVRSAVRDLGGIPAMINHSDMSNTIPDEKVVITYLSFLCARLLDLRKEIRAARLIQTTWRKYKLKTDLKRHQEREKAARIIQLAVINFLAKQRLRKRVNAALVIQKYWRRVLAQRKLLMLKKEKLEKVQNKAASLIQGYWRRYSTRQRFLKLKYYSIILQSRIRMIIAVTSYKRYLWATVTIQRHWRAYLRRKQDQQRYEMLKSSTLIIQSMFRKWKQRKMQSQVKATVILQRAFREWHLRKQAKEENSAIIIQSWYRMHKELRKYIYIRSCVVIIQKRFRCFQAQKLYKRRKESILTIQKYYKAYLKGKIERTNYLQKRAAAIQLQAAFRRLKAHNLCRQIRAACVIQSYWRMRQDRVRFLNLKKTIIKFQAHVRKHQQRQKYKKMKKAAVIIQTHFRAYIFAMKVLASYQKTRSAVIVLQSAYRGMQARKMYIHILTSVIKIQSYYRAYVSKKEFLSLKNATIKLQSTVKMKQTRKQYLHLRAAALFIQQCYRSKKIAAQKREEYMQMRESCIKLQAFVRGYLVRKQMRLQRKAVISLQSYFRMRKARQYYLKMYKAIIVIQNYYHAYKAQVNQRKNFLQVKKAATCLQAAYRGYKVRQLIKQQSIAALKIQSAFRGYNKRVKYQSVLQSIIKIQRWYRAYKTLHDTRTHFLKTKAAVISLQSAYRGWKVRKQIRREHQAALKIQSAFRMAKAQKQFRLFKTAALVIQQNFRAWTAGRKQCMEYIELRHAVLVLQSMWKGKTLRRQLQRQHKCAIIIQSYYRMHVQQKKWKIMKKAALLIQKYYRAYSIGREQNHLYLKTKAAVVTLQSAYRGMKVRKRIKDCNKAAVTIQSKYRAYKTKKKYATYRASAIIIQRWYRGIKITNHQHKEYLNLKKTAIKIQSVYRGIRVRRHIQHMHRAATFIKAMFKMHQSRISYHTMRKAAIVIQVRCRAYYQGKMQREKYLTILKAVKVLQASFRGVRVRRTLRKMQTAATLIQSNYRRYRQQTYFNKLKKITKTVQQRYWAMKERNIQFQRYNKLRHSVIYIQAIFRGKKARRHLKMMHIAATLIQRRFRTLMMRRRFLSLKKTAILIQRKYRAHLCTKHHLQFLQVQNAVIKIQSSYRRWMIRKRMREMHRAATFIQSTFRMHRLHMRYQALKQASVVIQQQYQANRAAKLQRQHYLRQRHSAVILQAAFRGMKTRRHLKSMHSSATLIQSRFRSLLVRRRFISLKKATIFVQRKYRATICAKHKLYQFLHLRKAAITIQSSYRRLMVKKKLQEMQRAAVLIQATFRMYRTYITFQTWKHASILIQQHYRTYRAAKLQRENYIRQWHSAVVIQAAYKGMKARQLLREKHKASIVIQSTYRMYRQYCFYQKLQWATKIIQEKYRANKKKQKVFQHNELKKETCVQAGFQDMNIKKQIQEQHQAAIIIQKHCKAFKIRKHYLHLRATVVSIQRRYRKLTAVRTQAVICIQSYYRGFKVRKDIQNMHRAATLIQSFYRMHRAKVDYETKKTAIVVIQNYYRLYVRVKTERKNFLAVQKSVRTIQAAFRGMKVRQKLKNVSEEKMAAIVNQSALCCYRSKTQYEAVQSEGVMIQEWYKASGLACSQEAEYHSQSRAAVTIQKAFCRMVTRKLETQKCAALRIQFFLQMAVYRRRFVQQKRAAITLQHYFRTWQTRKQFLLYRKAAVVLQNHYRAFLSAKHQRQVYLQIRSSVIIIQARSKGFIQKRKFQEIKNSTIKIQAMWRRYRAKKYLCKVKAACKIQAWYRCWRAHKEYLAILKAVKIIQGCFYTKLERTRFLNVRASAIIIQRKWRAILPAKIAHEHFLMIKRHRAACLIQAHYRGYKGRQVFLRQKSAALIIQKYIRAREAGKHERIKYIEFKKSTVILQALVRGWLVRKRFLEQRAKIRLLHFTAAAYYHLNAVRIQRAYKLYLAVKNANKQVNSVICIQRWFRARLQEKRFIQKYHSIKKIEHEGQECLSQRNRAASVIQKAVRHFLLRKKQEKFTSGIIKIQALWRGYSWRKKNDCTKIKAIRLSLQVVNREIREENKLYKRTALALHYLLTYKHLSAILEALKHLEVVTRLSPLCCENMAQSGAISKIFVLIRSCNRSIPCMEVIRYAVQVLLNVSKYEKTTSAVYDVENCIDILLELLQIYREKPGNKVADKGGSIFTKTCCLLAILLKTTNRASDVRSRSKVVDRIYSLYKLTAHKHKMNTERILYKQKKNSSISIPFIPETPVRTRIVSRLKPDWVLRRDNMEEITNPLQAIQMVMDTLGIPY
UniProt Q8NBU5: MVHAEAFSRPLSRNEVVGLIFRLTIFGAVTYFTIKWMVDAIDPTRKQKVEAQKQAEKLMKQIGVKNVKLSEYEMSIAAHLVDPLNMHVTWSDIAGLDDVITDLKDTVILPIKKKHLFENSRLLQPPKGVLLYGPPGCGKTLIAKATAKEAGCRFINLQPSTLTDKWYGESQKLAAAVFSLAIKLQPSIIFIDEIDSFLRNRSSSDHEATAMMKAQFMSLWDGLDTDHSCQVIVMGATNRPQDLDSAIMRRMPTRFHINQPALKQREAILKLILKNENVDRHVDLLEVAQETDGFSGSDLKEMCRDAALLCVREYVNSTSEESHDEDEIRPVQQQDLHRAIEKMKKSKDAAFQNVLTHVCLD
UniProt P27449, whole entry, looked up: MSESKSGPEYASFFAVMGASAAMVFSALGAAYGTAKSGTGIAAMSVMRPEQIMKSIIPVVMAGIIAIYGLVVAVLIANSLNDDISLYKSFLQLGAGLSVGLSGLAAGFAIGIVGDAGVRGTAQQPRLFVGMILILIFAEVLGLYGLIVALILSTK

Compound: CNC(=O)c1ccc(Nc2ncc(C(F)(F)F)c(NCc3nccnc3N(C)S(C)(=O)=O)n2)cc1 [defactinib]
Experiment: log2 fold change, soluble protein after heating vs DMSO (PISA); higher = thermal stabilisation; K562 lysate, 10 uM; active = over 0.2 and 3.5 SD of the protein, either way, in both replicates (recomputed)
Method in brief: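 To prepare the extract, K562 pellets were dounce-homogenised in PBS pH 7.4 with 1 mM MgCl2, giving crude material at 1 mg/mL protein. This was treated with 10 μM compound for 30 min, then heated in aliquots for 3 min over 48°C-58°C before pooling and addition of NP-40 to 0.5% at 4°C. Centrifugation at 21,000xg for 90 min left soluble protein in the supernatant, which TMTpro 16plex LC-MS/MS quantified with equalised channel sums. Results are log-two fold changes in thermal stability compared with solvent controls, from duplicates.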

ASB3 isoform 3 (UniProt Q9Y575) was tested. Which log2 fold change did it give?
The log2 fold change was inactive: 0.111.

How did the log2 fold change turn out when ATRN (UniProt O75882) was run?
The log2 fold change was inactive: 0.076.

With ATP5F1A (UniProt P25705) as the target, how does the log2 fold change read?
The log2 fold change was inactive: -0.008.

With ASCC2 (UniProt Q9H1I8) as the target, how does the log2 fold change read?
The log2 fold change was inactive: 0.

With ATXN7L3B (UniProt Q96GX2) as the target, how does the log2 fold change read?
The log2 fold change was inactive: -0.016.

How did the log2 fold change turn out when ASL (UniProt P04424) was run?
Its log2 fold change is inactive: -0.024.

How did the log2 fold change turn out when ATG10 (UniProt Q9H0Y0) was run?
Its log2 fold change is inactive: -0.037.

With ATP5F1B (UniProt F8W0P7) as the target, how does the log2 fold change read?
The log2 fold change was inactive: 0.075.

With ATG14 (UniProt Q6ZNE5) as the target, how does the log2 fold change read?
The log2 fold change was inactive: 0.119.

For ATF7IP2 (UniProt Q5U623), which log2 fold change is on record?
The log2 fold change was inactive: -0.072.

How did the log2 fold change turn out when B3GLCT (UniProt Q6Y288) was run?
Its log2 fold change is inactive: 0.033.

How did the log2 fold change turn out when ATL2 (UniProt Q8NHH9) was run?
The log2 fold change was inactive: 0.036.

ASPM (UniProt Q8IZT6) was tested. Which log2 fold change did it give?
The log2 fold change was inactive: 0.013.

For ATE1 isoform 2 (UniProt O95260), which log2 fold change is on record?
The log2 fold change was inactive: 0.

How did the log2 fold change turn out when ASNA1 (UniProt O43681) was run?
The log2 fold change was inactive: -0.011.

AUNIP isoform 2 (UniProt Q9H7T9) was tested. Which log2 fold change did it give?
The log2 fold change was inactive: 0.065.

ATAD1 (UniProt Q8NBU5) was tested. Which log2 fold change did it give?
Its log2 fold change is inactive: -0.054.

For AURKB isoform 5 (UniProt Q96GD4), which log2 fold change is on record?
Its log2 fold change is inactive: 0.107.

ATP6V0C (UniProt P27449) was tested. Which log2 fold change did it give?
Its log2 fold change is inactive: 0.223.

How did the log2 fold change turn out when ATXN1L (UniProt P0C7T5) was run?
The log2 fold change was inactive: -0.065.

For ATP7B (UniProt P35670), which log2 fold change is on record?
Its log2 fold change is inactive: -0.028.

With ATXN2L (UniProt Q8WWM7) as the target, how does the log2 fold change read?
Its log2 fold change is inactive: 0.043.

With ATXN2 (UniProt F8WB05) as the target, how does the log2 fold change read?
Its log2 fold change is inactive: -0.063.
